Data as given in PubChem BioAssay AID1259308 (NCATS, 2017).
Shown is a random part of about 59,000 deposited reagents. Of all reagents, about 1,510 (2.6%) are marked active. 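Calls use total luciferase alone and ignore viability, so some active siRNAs may act by altering cell number.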 The numbers tell different reagents against one gene apart. Further read-outs or replicates are left out here. No sequences are given here.

Aim: 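Genes whose loss raises luciferase production in HEK293 cells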 (primary screen)
Cell system: human HEK293 embryonic kidney cells stably expressing firefly luciferase (HEK-CMV-Luc2-Hygro)
Reagent: single siRNA against human genes, 0.8 pmol siRNA per well
Time to read-out: 72 h
Detection: 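Luciferase light (ONE-Glo) measured on one replicate plate set and viability (CellTiter-Glo) on the other, scaled to a negative control siRNA, with robust z-scores and luciferase per cell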
Direction: total luciferase, z-score and total luciferase, % of control: higher = more reporter protein produced
Hit rule: 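An siRNA counts as active if its total luciferase robust z-score exceeds 3; genes with two or more such siRNAs out of three were retested with fresh siRNAs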
Meaning of the calls: active = raised luciferase; inactive = no rise

GRP #1
- total luciferase, z-score: 0.0257
- total luciferase, % of control: 82.4
- activity call: inactive

GRP #2
- total luciferase, z-score: 0.817
- total luciferase, % of control: 98.1
- activity call: inactive

GRP #3
- total luciferase, z-score: 0.67
- total luciferase, % of control: 95.2
- activity call: inactive

OR5M8 #1
- total luciferase, z-score: -0.096
- total luciferase, % of control: 80
- activity call: inactive

OR5M8 #2
- total luciferase, z-score: 0.0834
- total luciferase, % of control: 83.5
- activity call: inactive

OR5M8 #3
- total luciferase, z-score: 2.21
- total luciferase, % of control: 126
- activity call: inactive

DGKQ #1
- total luciferase, z-score: 0.844
- total luciferase, % of control: 98.7
- activity call: inactive

DGKQ #2
- total luciferase, z-score: 4.43
- total luciferase, % of control: 170
- activity call: active

DGKQ #3
- total luciferase, z-score: -0.802
- total luciferase, % of control: 65.9
- activity call: inactive

PDZD8 #1
- total luciferase, z-score: 0.216
- total luciferase, % of control: 86.2
- activity call: inactive

PDZD8 #2
- total luciferase, z-score: 0.713
- total luciferase, % of control: 96.1
- activity call: inactive

PDZD8 #3
- total luciferase, z-score: 0.412
- total luciferase, % of control: 90.1
- activity call: inactive

TMBIM6 #1
- total luciferase, z-score: -3.22
- total luciferase, % of control: 17.8
- activity call: inactive

TMBIM6 #2
- total luciferase, z-score: -0.0764
- total luciferase, % of control: 80.4
- activity call: inactive

TMBIM6 #3
- total luciferase, z-score: -0.0832
- total luciferase, % of control: 80.2
- activity call: inactive

SSTR3 #1
- total luciferase, z-score: -2.13
- total luciferase, % of control: 39.5
- activity call: inactive

SSTR3 #2
- total luciferase, z-score: -0.231
- total luciferase, % of control: 77.3
- activity call: inactive

SSTR3 #3
- total luciferase, z-score: 0.0964
- total luciferase, % of control: 83.8
- activity call: inactive

FOXD4L3 #1
- total luciferase, z-score: -0.894
- total luciferase, % of control: 64.1
- activity call: inactive

FOXD4L3 #2
- total luciferase, z-score: 0.992
- total luciferase, % of control: 102
- activity call: inactive

FOXD4L3 #3
- total luciferase, z-score: 0.431
- total luciferase, % of control: 90.5
- activity call: inactive

FKBPL #1
- total luciferase, z-score: -1.44
- total luciferase, % of control: 53.2
- activity call: inactive

FKBPL #2
- total luciferase, z-score: 0.259
- total luciferase, % of control: 87
- activity call: inactive

FKBPL #3
- total luciferase, z-score: 0.825
- total luciferase, % of control: 98.3
- activity call: inactive

PACRG #1
- total luciferase, z-score: -0.102
- total luciferase, % of control: 79.9
- activity call: inactive

PACRG #2
- total luciferase, z-score: 0.258
- total luciferase, % of control: 87
- activity call: inactive

PACRG #3
- total luciferase, z-score: -1.02
- total luciferase, % of control: 61.6
- activity call: inactive

OLFM3 #1
- total luciferase, z-score: -0.823
- total luciferase, % of control: 65.5
- activity call: inactive

OLFM3 #2
- total luciferase, z-score: -0.648
- total luciferase, % of control: 69
- activity call: inactive

OLFM3 #3
- total luciferase, z-score: 0.392
- total luciferase, % of control: 89.7
- activity call: inactive

PSMA6P2 #1
- total luciferase, z-score: -0.83
- total luciferase, % of control: 65.4
- activity call: inactive

PSMA6P2 #2
- total luciferase, z-score: -0.295
- total luciferase, % of control: 76
- activity call: inactive

PSMA6P2 #3
- total luciferase, z-score: -0.297
- total luciferase, % of control: 76
- activity call: inactive

CD96 #1
- total luciferase, z-score: -2.3
- total luciferase, % of control: 36.1
- activity call: inactive

CD96 #2
- total luciferase, z-score: 1.22
- total luciferase, % of control: 106
- activity call: inactive

CD96 #3
- total luciferase, z-score: 0.243
- total luciferase, % of control: 86.7
- activity call: inactive

WFDC8 #1
- total luciferase, z-score: 4.42
- total luciferase, % of control: 170
- activity call: active

WFDC8 #2
- total luciferase, z-score: -0.654
- total luciferase, % of control: 68.9
- activity call: inactive

WFDC8 #3
- total luciferase, z-score: -0.469
- total luciferase, % of control: 72.5
- activity call: inactive

NDEL1 #1
- total luciferase, z-score: 0.092
- total luciferase, % of control: 83.7
- activity call: inactive

NDEL1 #2
- total luciferase, z-score: 0.0898
- total luciferase, % of control: 83.7
- activity call: inactive

NDEL1 #3
- total luciferase, z-score: 0.516
- total luciferase, % of control: 92.2
- activity call: inactive
